Results are given in words; binding and its absence hold for the method and conditions named. Binding seen in cells or lysates may run through a third protein. Some results given as binding are weak or reduced against the parent protein; the word gives no strength.
Target: T1, Stimulator of interferon genes protein (STING) (mouse (endogenous in L929)) (UniProt Q3TBT3)
T1 sequence: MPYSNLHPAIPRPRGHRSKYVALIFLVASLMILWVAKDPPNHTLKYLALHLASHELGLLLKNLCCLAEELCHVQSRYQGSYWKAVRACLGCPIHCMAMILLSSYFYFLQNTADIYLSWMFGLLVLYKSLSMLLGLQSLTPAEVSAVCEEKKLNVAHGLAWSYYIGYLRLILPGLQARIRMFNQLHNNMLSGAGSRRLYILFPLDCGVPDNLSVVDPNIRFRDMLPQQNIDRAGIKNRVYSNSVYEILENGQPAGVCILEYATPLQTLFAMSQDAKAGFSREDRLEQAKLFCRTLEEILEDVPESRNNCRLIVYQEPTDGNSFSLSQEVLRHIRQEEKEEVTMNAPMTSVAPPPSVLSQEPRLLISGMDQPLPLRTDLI
Test: co-IP; L929 cells stimulated with S-cddA (100 nM), ML323 (5 uM) or both for 1 or 2 h; IP lysis buffer; 1 mg/500 uL lysate with primary antibody overnight at 4 C, Protein A + G Agarose 4 h, TBS washes; Western blot

The chains behind the UniProt entries cited, without tags or fusion partners.
UniProt Q6PF93: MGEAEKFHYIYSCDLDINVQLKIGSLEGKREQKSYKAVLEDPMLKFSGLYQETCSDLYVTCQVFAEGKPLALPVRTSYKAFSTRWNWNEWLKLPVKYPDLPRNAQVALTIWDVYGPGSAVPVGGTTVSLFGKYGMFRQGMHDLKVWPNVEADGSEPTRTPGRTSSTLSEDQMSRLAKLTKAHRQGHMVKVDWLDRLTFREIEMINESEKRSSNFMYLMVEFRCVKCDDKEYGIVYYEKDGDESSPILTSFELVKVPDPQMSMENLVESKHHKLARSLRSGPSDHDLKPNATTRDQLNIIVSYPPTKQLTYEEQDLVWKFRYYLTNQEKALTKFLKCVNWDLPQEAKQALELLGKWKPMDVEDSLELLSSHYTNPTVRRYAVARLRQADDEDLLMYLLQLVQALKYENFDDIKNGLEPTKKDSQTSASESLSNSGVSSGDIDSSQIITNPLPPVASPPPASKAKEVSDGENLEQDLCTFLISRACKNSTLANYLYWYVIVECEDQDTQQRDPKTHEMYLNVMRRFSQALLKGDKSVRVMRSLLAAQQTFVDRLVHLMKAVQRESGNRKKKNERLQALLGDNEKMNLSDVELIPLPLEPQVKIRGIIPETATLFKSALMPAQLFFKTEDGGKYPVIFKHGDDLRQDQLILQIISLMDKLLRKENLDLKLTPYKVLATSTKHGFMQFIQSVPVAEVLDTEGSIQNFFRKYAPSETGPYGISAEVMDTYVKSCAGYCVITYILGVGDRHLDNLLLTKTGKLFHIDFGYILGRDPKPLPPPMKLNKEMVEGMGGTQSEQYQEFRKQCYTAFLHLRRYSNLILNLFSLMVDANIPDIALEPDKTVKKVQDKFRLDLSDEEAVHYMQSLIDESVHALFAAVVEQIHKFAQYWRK

| binding | Substance |
| --- | --- |
| binds | STING ER exit protein (STEEP) (from UniProt Q8VDP2 1-222) |
| no binding | vacuolar protein sorting 34 (VPS34) (from UniProt Q6PF93 1-887) |

Reference: PMC12005740
